Values joined by “and” are separate entries in the source; they are usually repeats but may differ in a detail not shown here. Equal values may be shown once. Some of the results follow. The main result of the screen is listed elsewhere. These columns were measured beside it and carry no call. Most of these compounds were active or inconclusive in the main read-out, so they are no random draw. Words in brackets tell the shape of the fitted curve; partial curves, single points and poor fits give uncertain potencies.
Assay: qHTS Assay to Find Inhibitors of Chronic Active B-Cell Receptor Signaling
Details: ABC-DLBCL IkBa-CBG/CBR reporter, luminescence ratio (green luciferase fused to IkBa over red control in TMD8 lymphoma cells), 4 h
Summary of the method: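 Compounds up to 46 uM were incubated four hours with TMD8 cells whose green CBG68 luciferase is fused to IkappaBalpha; red CBR luminescence normalised the signal, and concentration-effect curves were fitted to fusion, red and ratio data.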

[1] = measured here: CBR red luminescence, cell number
[2] = measured here: IkBa-CBG green luminescence

| Compound | AC50 [1] | AC50 [2] |
| --- | --- | --- |
| COc1ccc(N(C)S(=O)(=O)c2cccc(C(=O)OCC(=O)c3c(N)n(C)c(=O)n(C)c3=O)c2)cc1 | 16.4 µM [falling, single point] | – |
| CCC(=NC(C)c1ccccc1)c1c(O)n(C)c(=O)n(C)c1=O (stereo unspecified) | 6.51 µM [falling, single point] | – |
| Cc1cn(-c2cccnc2)c(C)c1CNC[C@H]1O[C@@H](n2cnc3c(N)ncnc32)[C@H](O)[C@@H]1O | 29.1 µM [rising, single point] | 20.6 µM [falling, partial curve] |
| O=C1C(Cl)=C(N2CCOCC2)C(=O)N1c1cccc(Cl)c1 | 20 µM [falling, single point] | – |
| CCOc1ccc(-c2csc(N)c2C(=O)OC)cc1 | 20.6 µM [rising, partial curve, poor fit] | – |
| CC(=O)c1sc(NC(=O)c2cccc(N3C(=O)CCC3=O)c2)nc1-c1ccccc1 | 0.651 µM [falling, partial curve, poor fit] | – |
| CCC(C)[C@H](NC(=O)NCc1ccccc1Cl)C(=O)O (stereo partly specified) | 29.1 µM [falling, single point] | – |
| COc1ccc2nc(NC(=O)CSc3nc4ccccc4o3)sc2c1 | 20 µM [rising, single point] | – |
| CC(=O)Nc1ccc(S(=O)(=O)NCC(=O)OC(C)c2ccccc2Cl)cc1 (stereo unspecified) | 18.4 µM [rising, single point] | 29.1 µM [falling, partial curve, poor fit] |
| CCc1ccc(N(C(=O)CCC(=O)Nc2cc(C)on2)C(C(=O)NC2CCCC2)c2ccco2)cc1 (stereo unspecified) | 20.6 µM [rising, single point] | – |
| O=C(CSc1nc(=O)n(CCCN2CCOCC2)c2c1CCCC2)Nc1ccc(F)cc1 | 4.11 µM [falling, single point] | – |
| CCOC(=O)[C@H]1[C@H]2COc3cc(OC)ccc3[C@@H]2N2C(=O)c3ccc(F)cc3NC(=O)[C@@]12C | 20.6 µM [falling, single point] | – |
| COc1ccc(-n2c(SCC(=O)Nc3cc(C)on3)nc3ccccc3c2=O)cc1Cl | 35.5 µM [rising, single point] | – |
| Cc1ccc(CNC(=O)CSc2c3c(nc4ccc(Cl)cc24)CCCC3)o1 | 11.6 µM [falling, partial curve] | – |
| CCOc1ccccc1NC(=O)NNC(=O)c1ccc2ccccc2c1 | 25.1 µM [falling, single point] | – |
| C=CCCC(=O)Nc1nc(C)c(-c2csc(Nc3ccc(Cl)cc3)n2)s1 | 0.316 µM [rising, full curve, poor fit] | 14.1 µM [rising, partial curve, poor fit] |
| CS(=O)(=O)N1CCN(C(=O)c2csc3ccccc23)CC1 | 16.4 µM [rising, single point] | – |
| N#Cc1c(N)nc2c(c1N)CC(C(F)(F)F)O2 (stereo unspecified) | 35.5 µM [falling, single point] | – |
| Cc1cccc(Nc2nnc(SCC(=O)Nc3ccccc3[N+](=O)[O-])s2)c1 | 20.6 µM [falling, single point] | – |
| O=C(c1ccc(F)cc1)C1CCN(C(=O)N2CCOCC2)CC1 | 7.94 µM [rising, partial curve, poor fit] | – |
| O=C(Nc1ccccc1)OC1CC2CC1C1CCCC21 (stereo unspecified) | 10 µM [falling, single point] | – |

| Compound | AC50 [1] | AC50 [2] |
| --- | --- | --- |
| CC1S/C(=N/N=C/c2cccs2)NC1=O (stereo unspecified) | 2.31 µM [rising, partial curve, poor fit] | – |
| Cc1ccc(CN2C(=O)CCC2C(=O)NCc2ccc(F)cc2)cc1 (stereo unspecified) | 4.47 µM [rising, full curve, poor fit] | – |
| Cc1cc(-c2nnc3n2N=C(c2ccc(-c4ccccc4)cc2)CS3)n[nH]1 | 35.5 µM [falling, single point] | – |
| CNC(=O)CN(c1cc(C)ccc1OC)S(=O)(=O)c1ccc(C)cc1 | 6.51 µM [falling, single point] | – |
| CCn1cc(CN2CCC(C(=O)Nc3cccc(-c4cccc(Cl)c4)c3)CC2)cn1 | 15.8 µM [falling, partial curve, poor fit] | – |
| O=C(CCC1COc2ccccc2O1)NCc1ccccc1 (stereo unspecified) | 2.06 µM [rising, single point] | – |
| CCCC1(C(=O)OCC)NC(c2ccc(N(C)C)cc2)C2C(=O)N(c3ccc(OCC)cc3)C(=O)C21 (stereo unspecified) | 12.6 µM [rising, single point] | – |
| COc1ccc2nc(/C=N/NC(=O)[C@H](CCSC)NC(=O)OC(C)(C)C)ccc2c1 | 1.84 µM [rising, full curve, poor fit] | – |
| CCNC(=O)COC(=O)c1cc(S(=O)(=O)N2CCCCC2)ccc1C | 2.51 µM [rising, partial curve, poor fit] | – |
| O=C(CCc1ccccc1)N1CCN(c2ccc(F)cc2)CC1 | 7.94 µM [rising, partial curve, poor fit] | – |
| C/C=C/C=C/C(=O)Nc1cccc(C2=NOC3(C2)C[C@H](C(N)=O)N(C(=O)CC(c2ccccc2)c2ccccc2)C3)c1 (stereo partly specified) | 3.16 µM [falling, partial curve, poor fit] | – |
| Cc1ccc(C)c(OCC(=O)Nc2cccc(C(=O)O)c2)c1C | 0.92 µM [rising, full curve] | – |
| COC(=O)C1=C(C)N(Cc2ccccc2)C(=NCC(C)C)N[C@H]1c1cccc(F)c1 | 20 µM [falling, partial curve, poor fit] and 16.4 µM [falling, partial curve] | – |
| COc1ccc(Nc2nc(N)nc(C(F)(F)F)n2)c(OC)c1 | 2.06 µM [rising, full curve, poor fit] | – |
| O=C(NCC1CC1(Cl)Cl)Nc1ccc(Cl)c(Cl)c1 (stereo unspecified) | 35.5 µM [falling, single point] | – |
| N/C(Cc1ccccc1)=N\OC(=O)c1cccc2ccccc12 | 10.3 µM [rising, partial curve] | – |
| Cc1ccc(NC(=S)N=Nc2c(O)[nH]c3ccccc23)cc1 | 3.55 µM [rising, single point] | 5.62 µM [falling, single point] |
| Cc1nc(-c2ccccn2)sc1C(=O)O | 14.1 µM [falling, single point] | 0.1 µM [rising, full curve, poor fit] |
| CCN(CC)C(=O)Oc1ccc(OC(=O)N(CC)CC)cc1 | 12.6 µM [rising, single point] | – |
| COC(=O)c1ccc(N=NN2CCOCC2)cc1 | 3.26 µM [rising, full curve] | – |
| Cc1cccc(N(CC(=O)NCc2ccc3c(c2)OCO3)C(=O)CCC(=O)Nc2ccccn2)c1C | 10 µM [falling, partial curve] | – |

A run of entries from further up:

| Compound | AC50 [1] | AC50 [2] |
| --- | --- | --- |
| O=C(CCC1COc2ccccc2O1)NCc1ccccc1 (stereo unspecified) | 2.06 µM [rising, single point] | – |
| CCCC1(C(=O)OCC)NC(c2ccc(N(C)C)cc2)C2C(=O)N(c3ccc(OCC)cc3)C(=O)C21 (stereo unspecified) | 12.6 µM [rising, single point] | – |

(list continues)

| Compound | AC50 [1] | AC50 [2] |
| --- | --- | --- |
| O=C(Cc1cccs1)NCCn1ccc2ccccc21 | 0.164 µM [rising, full curve, poor fit] | – |
| Cc1cc(Cl)ccc1OC(C)C(=O)N1CCCN(C(=O)C(C)Oc2ccc(Cl)cc2C)CC1 (stereo unspecified) | 25.1 µM [falling, single point] | – |
| C/C(=N\NC(=O)c1ccc(Cl)cc1)c1ccc2[nH]ccc2c1 | 0.316 µM [falling, full curve] | – |
| S=C(NCc1ccco1)N/N=C/c1ccc(Cl)cc1 | 7.31 µM [falling, partial curve, poor fit] | – |
| Cc1ccccc1NC(=O)C1COc2ccccc2O1 (stereo unspecified) | 4.47 µM [rising, partial curve, poor fit] | – |
| COc1ccccc1C(CNC(=O)c1ccc(-c2ccccc2Cl)o1)N1CCCC1 (stereo unspecified) | 18.4 µM [falling, partial curve] | – |
| Cc1ccc(S(=O)(=O)N2CCCC2CNC(=O)C(=O)Nc2ccc(F)cc2F)cc1 (stereo unspecified) | 11.6 µM [falling, partial curve, poor fit] | – |
| O=C(NCc1cccs1)c1cc(-c2cccs2)on1 | 0.891 µM [falling, partial curve, poor fit] | – |
| Nc1c(C(=O)Nc2ccc(F)cc2)sc2nc(-c3ccco3)ccc12 | 2.82 µM [falling, full curve] | – |
| COc1cc(/C=N/NC(=O)C(Cc2c[nH]c3ccccc23)NC(=O)OCC(C)C)cc([N+](=O)[O-])c1OCc1ccccc1 (stereo unspecified) | 3.55 µM [falling, single point] | – |
| CCOC(=O)N1CCN(C(=O)COc2cccc3c2CCN(Cc2ccccc2C)C3=O)CC1 | 8.2 µM [falling, partial curve] | – |
| CC(=O)Nc1ccc(-c2csc(NCc3ccccc3)n2)cc1 | 2.51 µM [rising, full curve] | – |
| COc1ccc(-c2cc(C#N)nc(Cl)n2)cc1 | – | 35.5 µM [falling, single point] |
| O=C(Nc1cccc([N+](=O)[O-])c1)Nc1ccc2c(c1)CCC2 | 0.562 µM [rising, full curve] | – |
| CC1CCCCC1NC(=O)CN1C(=O)c2ccccc2S1(=O)=O (stereo unspecified) | 20 µM [rising, single point] | – |
| COc1ccc(Cl)cc1C(=O)NC(=S)Nc1cc(-c2nc3ccccc3[nH]2)ccc1C | 7.08 µM [falling, full curve, poor fit] | – |
| Fc1cccc(/C=N/n2c(C3CCCCC3)n[nH]c2=S)c1 | 35.5 µM [rising, single point] | – |
| Cc1cccc(C(=O)NN2C(=O)C3C(c4ccccc4)C=CC(c4ccccc4)C3C2=O)c1 (stereo unspecified) | 35.5 µM [falling, single point] | – |
| CCn1c(=O)c2c(nc3n2CCCN3CCc2ccc(OC)c(OC)c2)n(C)c1=O | 12.6 µM [falling, partial curve] | – |

Among those listed so far, these have an aryl methoxy group:

| Compound | AC50 [1] | AC50 [2] |
| --- | --- | --- |
| COc1ccc(N(C)S(=O)(=O)c2cccc(C(=O)OCC(=O)c3c(N)n(C)c(=O)n(C)c3=O)c2)cc1 | 16.4 µM [falling, single point] | – |
| COc1ccc2nc(NC(=O)CSc3nc4ccccc4o3)sc2c1 | 20 µM [rising, single point] | – |
| CCOC(=O)[C@H]1[C@H]2COc3cc(OC)ccc3[C@@H]2N2C(=O)c3ccc(F)cc3NC(=O)[C@@]12C | 20.6 µM [falling, single point] | – |
| COc1ccc(-n2c(SCC(=O)Nc3cc(C)on3)nc3ccccc3c2=O)cc1Cl | 35.5 µM [rising, single point] | – |
| CNC(=O)CN(c1cc(C)ccc1OC)S(=O)(=O)c1ccc(C)cc1 | 6.51 µM [falling, single point] | – |
| COc1ccc2nc(/C=N/NC(=O)[C@H](CCSC)NC(=O)OC(C)(C)C)ccc2c1 | 1.84 µM [rising, full curve, poor fit] | – |
| COc1ccc(Nc2nc(N)nc(C(F)(F)F)n2)c(OC)c1 | 2.06 µM [rising, full curve, poor fit] | – |
| COc1ccccc1C(CNC(=O)c1ccc(-c2ccccc2Cl)o1)N1CCCC1 (stereo unspecified) | 18.4 µM [falling, partial curve] | – |
| COc1cc(/C=N/NC(=O)C(Cc2c[nH]c3ccccc23)NC(=O)OCC(C)C)cc([N+](=O)[O-])c1OCc1ccccc1 (stereo unspecified) | 3.55 µM [falling, single point] | – |
| COc1ccc(-c2cc(C#N)nc(Cl)n2)cc1 | – | 35.5 µM [falling, single point] |
| COc1ccc(Cl)cc1C(=O)NC(=S)Nc1cc(-c2nc3ccccc3[nH]2)ccc1C | 7.08 µM [falling, full curve, poor fit] | – |
| CCn1c(=O)c2c(nc3n2CCCN3CCc2ccc(OC)c(OC)c2)n(C)c1=O | 12.6 µM [falling, partial curve] | – |

Source: PubChem BioAssay AID493014 (National Center for Advancing Translational Sciences (NCATS), 2011)
